Data published in publication PMC3382619.
These are yes or no findings as the source states them, for the method shown. Binding seen in cells or lysates may run through a third protein. Some entries that bind do so weakly or less than the wild type.

Amino acid sequences for entries named in this document (tags omitted).
UniProt P62258: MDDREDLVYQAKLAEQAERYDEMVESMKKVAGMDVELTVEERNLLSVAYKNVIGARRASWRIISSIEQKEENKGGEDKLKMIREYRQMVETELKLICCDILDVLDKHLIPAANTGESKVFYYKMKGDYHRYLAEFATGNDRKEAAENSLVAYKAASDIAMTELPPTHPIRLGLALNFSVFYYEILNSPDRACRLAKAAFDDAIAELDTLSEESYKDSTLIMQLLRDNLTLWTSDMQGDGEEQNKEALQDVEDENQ
UniProt Q9Y696: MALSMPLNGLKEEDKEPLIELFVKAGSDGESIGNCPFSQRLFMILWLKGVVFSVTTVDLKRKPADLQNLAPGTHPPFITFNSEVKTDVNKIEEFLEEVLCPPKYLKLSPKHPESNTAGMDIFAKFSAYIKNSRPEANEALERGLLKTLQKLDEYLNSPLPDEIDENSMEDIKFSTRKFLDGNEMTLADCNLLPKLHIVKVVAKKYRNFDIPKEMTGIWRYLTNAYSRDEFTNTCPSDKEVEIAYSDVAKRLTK

Molecular target: 14-3-3 epsilon (human (endogenous in U251)) (UniProt P62258)
Experiment: co-IP; endogenous proteins in U251 lysate (RIPA buffer), immune complexes on protein A-Sepharose beads, washed with PBS; control cells, cells in EBSS (starvation) and cells transfected with CLIC4 siRNA; the precipitating antibody is not stated

binding: binds
Substance: CLIC4 (from UniProt Q9Y696 1-253)
